Measured values as given in patent US9254288B2, “Susceptibility of tumors to tyrosine kinase inhibitors and treatment thereof” (THE TRANSLATIONAL GENOMICS RESEARCH INSTITUTE, priority 2012, dated 2016).
For at least one compound, name, drawing or mass did not settle the structure.

Tested on: JHUEM-2 cells expressing FGFR2N550K
Experiment: JHUEM-2 cells stably expressing FGFR2N550K, cell viability
Assay type: cell-based

Q: `Cc1ccc(C(=O)Nc2ccc(CN3CCN(C)CC3)c(C(F)(F)F)c2)cc1C#Cc1cnc2cccnn12` [ponatinib] was tested. Which “effect of FGFR2N550K expression on sensitivity” value did it give?
A: did not affect the sensitivity
